According to the supplement of paper PMC10849652:
The other results are listed elsewhere or left out.

By UniProt entry, the sequences of proteins in these tests, tags left out. Where a name states a change or a piece, a line headed by the entry shows the natural chain unless it says otherwise.
UniProt P60673: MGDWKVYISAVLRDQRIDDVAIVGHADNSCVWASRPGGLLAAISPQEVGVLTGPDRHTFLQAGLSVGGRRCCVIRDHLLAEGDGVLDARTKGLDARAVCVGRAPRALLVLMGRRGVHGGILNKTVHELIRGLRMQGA
UniProt Q8WXW3: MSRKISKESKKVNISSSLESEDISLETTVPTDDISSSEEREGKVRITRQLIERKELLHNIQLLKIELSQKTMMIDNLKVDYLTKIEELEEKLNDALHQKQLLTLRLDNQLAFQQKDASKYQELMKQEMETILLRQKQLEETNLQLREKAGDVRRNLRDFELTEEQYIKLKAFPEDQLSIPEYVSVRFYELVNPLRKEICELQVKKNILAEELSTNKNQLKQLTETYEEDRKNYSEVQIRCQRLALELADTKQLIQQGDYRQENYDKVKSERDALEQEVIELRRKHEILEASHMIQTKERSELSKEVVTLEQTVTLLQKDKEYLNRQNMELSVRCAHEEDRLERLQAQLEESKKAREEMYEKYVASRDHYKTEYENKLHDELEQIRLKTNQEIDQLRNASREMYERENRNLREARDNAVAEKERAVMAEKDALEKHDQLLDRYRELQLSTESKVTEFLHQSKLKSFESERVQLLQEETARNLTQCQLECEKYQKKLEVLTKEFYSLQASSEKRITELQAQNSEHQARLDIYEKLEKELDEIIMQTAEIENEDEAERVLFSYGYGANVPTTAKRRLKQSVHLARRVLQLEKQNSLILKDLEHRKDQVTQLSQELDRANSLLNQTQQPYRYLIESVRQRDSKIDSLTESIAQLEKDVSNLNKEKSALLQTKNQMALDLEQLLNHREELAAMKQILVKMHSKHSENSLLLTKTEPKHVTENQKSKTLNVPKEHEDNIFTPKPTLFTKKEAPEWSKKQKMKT
UniProt P46020: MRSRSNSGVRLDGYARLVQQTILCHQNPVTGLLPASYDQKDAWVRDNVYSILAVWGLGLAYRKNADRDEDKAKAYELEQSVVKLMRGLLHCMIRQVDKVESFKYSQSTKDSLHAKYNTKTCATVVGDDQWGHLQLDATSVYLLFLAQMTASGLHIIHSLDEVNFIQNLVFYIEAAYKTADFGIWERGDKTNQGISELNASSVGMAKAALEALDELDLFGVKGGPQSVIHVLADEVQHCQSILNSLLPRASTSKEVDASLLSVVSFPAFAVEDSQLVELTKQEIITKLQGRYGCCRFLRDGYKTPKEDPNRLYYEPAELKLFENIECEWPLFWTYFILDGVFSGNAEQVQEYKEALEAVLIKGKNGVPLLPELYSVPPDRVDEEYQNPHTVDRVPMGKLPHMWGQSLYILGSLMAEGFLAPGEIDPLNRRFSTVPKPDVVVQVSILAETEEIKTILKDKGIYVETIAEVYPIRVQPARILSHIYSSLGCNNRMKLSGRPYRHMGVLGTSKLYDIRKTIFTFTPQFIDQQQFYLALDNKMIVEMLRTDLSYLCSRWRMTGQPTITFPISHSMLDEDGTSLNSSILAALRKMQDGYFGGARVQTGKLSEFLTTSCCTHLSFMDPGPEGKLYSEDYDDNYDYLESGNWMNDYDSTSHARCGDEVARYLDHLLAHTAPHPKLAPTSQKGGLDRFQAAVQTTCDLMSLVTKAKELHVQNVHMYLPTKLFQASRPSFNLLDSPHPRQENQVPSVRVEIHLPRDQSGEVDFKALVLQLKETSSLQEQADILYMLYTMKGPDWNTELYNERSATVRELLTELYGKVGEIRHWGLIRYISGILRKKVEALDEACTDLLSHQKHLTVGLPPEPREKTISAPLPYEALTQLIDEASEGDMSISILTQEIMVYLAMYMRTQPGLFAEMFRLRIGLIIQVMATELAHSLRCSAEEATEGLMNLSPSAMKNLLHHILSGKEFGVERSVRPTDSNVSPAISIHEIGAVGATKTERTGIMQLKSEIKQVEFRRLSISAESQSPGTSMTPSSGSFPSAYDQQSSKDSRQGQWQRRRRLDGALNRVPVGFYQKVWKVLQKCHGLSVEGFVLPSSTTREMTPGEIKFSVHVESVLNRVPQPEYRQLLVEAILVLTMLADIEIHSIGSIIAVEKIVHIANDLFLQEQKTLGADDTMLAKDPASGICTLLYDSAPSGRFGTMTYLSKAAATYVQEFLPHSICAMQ
UniProt Q7Z7B1: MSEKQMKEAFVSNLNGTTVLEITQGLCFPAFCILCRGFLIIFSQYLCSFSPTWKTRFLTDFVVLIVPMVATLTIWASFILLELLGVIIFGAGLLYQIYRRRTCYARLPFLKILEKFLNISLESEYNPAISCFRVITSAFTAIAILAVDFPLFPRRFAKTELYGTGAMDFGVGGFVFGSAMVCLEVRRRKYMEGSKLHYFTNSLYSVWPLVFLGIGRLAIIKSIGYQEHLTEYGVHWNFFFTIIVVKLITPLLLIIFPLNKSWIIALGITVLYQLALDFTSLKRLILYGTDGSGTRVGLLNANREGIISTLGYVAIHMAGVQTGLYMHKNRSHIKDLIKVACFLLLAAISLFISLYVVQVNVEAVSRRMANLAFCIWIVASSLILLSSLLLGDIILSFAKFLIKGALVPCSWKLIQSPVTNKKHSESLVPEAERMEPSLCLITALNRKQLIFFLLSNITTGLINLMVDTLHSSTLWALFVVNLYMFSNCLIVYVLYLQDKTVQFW
UniProt Q9BZM1: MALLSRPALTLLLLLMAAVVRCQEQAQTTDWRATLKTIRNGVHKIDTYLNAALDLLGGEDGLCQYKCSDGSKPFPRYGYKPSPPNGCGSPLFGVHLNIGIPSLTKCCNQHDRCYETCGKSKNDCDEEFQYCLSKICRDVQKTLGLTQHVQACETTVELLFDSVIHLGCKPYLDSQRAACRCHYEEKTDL
UniProt Q9NXJ5: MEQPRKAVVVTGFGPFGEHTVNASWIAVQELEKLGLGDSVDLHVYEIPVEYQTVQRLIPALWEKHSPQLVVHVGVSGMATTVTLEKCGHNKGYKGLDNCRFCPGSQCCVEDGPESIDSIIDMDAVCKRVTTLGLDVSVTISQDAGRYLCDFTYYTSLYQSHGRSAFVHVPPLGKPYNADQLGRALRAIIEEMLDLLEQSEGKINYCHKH
UniProt O60346: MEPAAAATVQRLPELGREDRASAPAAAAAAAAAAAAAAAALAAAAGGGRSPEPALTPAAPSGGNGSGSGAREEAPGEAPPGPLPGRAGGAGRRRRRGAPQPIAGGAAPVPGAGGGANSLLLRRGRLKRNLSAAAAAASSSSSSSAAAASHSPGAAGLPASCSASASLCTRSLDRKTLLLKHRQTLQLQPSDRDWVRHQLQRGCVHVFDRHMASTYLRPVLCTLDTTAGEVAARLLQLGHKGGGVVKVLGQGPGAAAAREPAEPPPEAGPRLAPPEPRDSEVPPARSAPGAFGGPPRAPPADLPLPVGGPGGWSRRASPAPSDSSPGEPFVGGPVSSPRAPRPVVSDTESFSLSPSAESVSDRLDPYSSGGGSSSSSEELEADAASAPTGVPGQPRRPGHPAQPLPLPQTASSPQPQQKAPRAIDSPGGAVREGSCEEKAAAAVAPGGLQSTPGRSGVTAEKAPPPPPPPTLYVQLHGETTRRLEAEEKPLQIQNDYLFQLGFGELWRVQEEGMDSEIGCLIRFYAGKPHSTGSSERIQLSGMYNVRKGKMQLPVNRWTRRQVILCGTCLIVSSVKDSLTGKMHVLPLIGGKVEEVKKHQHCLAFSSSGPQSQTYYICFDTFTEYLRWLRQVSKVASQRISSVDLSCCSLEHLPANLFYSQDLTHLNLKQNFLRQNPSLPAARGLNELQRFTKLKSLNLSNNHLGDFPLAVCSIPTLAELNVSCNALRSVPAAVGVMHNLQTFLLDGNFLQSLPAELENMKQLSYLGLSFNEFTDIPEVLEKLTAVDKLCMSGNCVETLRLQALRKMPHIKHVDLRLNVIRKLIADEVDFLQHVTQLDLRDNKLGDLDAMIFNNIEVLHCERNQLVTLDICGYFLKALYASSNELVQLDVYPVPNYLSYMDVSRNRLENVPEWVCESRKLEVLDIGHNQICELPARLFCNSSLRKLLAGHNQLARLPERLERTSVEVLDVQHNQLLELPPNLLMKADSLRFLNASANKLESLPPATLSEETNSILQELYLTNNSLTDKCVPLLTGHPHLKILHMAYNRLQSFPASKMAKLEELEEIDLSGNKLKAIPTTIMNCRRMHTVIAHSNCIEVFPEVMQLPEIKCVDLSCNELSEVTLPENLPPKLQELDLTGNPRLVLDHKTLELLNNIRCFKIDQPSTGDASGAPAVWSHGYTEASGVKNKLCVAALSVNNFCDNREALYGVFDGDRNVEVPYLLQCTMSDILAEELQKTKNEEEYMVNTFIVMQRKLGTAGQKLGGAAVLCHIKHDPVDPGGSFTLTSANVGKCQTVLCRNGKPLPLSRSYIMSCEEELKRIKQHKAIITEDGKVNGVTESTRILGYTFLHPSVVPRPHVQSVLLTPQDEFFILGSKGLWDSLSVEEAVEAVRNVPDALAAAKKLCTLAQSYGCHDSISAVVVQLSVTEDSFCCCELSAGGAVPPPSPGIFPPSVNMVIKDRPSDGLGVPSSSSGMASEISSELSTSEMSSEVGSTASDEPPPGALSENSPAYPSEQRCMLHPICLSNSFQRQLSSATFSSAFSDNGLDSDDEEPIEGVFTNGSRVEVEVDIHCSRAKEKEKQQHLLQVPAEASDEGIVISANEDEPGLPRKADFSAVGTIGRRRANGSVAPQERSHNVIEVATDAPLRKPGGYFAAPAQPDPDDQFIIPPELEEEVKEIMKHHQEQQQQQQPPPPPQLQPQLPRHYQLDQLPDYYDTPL
UniProt Q8IUZ5: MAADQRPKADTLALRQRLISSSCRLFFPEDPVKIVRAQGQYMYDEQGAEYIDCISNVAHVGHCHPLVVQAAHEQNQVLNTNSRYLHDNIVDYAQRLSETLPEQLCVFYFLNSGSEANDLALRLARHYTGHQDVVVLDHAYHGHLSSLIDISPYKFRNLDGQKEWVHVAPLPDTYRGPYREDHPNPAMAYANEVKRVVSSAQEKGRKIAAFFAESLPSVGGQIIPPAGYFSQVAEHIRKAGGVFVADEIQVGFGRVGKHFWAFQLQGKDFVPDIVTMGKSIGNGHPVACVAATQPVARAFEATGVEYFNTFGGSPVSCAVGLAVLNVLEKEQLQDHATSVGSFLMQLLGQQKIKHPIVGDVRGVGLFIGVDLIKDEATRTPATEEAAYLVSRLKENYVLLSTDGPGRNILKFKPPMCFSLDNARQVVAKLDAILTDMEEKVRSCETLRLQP

Columns and labels:
Assay in all cases: log2 fold change, soluble protein after heating vs DMSO (PISA); higher = thermal stabilisation; K562 cells, 10 uM, 30 min; active = over 0.2 and 3.5 SD of the protein, either way, in both replicates (recomputed)
[1] = compound: CC1=C(SC2=C1C(=N[C@H](C3=NN=C(N32)C)CC(=O)N)C4=CC=C(C=C4)Cl)C
Summary of the method: (§1)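 K562 cells (2×10^6 cells/mL) were treated with 10 μM compound for 30 min, and aliquots were heated for 3 min over 48°C-58°C. Pooled aliquots were extracted in PBS with 0.5% NP-40 at 4°C, and the supernatant after 21,000xg for 90 min was measured by TMTpro 16plex LC-MS/MS with channel sums equalised. Reported thermal stability, relative to control samples and from duplicates, is a log2 fold change.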

[2] = compound: CC1=C2C(=CC=C1)N=C(N(C2=O)C3=CC=CC=C3C)CN4C=NC5=C(N=CN=C54)N
Summary of the method: as §1

[3] = compound: Cc1sc2c(c1C)C(c1ccc(Cl)cc1)=N[C@@H](CC(=O)OC(C)(C)C)c1nnc(C)n1-2
Summary of the method: as §1

[4] = compound: c1ccc([C@@H]2C[C@H]2NC2CCNCC2)cc1
Summary of the method: as §1

[5] = compound: C1=CC=C(C=C1)[C@H](COC2=CC3=C(C=C2)NC(=O)N3)NC(=O)C4=CC=CN(C4=O)CC5=CC(=C(C=C5)F)F
Summary of the method: as §1

Measured: log2 fold change

PFN3 (UniProt P60673)
inactive: [1] 0.733 | [2] 0.146 | [3] 0.023 | [4] -0.101

PIBF1 (UniProt Q8WXW3)
inactive: [5] -0.07 | [3] 0.015

PIGM (UniProt Q9H3S5)
inactive: [5] -0.022 | [1] 0.113 | [2] 0.061 | [4] -0.158

PGD (UniProt K7EM49)
inactive: [5] 0.032 | [2] 0.124

PHKA1 (UniProt P46020)
inactive: [5] 0.028 | [1] -0.078 | [3] 0.103 | [4] 0.011

PHF19 isoform 2 (UniProt Q5T6S3)
inactive: [5] 0.002 | [2] 0.067 | [3] 0.035

PIGW (UniProt Q7Z7B1)
inactive: [5] -0.073 | [2] 0.046 | [3] -0.067

Quoted from the entries so far (2 entries):
PHF19 isoform 2 (UniProt Q5T6S3)
inactive: [5] 0.002 | [2] 0.067 | [3] 0.035

PIGW (UniProt Q7Z7B1)
inactive: [5] -0.073 | [2] 0.046 | [3] -0.067

Later entries

PLA2G12A (UniProt Q9BZM1)
inactive: [5] -0.011 | [1] 0.07 | [3] 0.112 | [4] 0.239

PGPEP1 (UniProt Q9NXJ5)
inactive: [5] -0.072 | [1] 0.036 | [2] -0.485 | [4] -0.094

PHLPP1 (UniProt O60346)
inactive: [1] 0.02 | [3] 0.092 | [4] 0.023

PEX5 isoform 4 (UniProt P50542)
inactive: [1] -0.147 | [2] 0.043 | [3] 0.059 | [4] 0.006

PHYKPL (UniProt Q8IUZ5)
inactive: [3] -0.046
